# Experimental data reported in PubChem BioAssay AID493014 (National Center for Advancing Translational Sciences (NCATS), 2011).
# Out of some 340,000 compounds screened, about 170 (0.05%) were called active. Inconclusive means that the source gave no clear call. Such entries were picked first, then a sample of the others. Calls follow the shape of the dose curve; as a rule, active = well fitted inhibition curve with a large enough effect in the signal ratio, with a control signal flat (not every such curve was filed as active); inconclusive = small, poorly fitted or top-dose-only effect, or effect the other way, or a change in a side signal; inactive = flat fitted curve, though single readings scatter; the % refers to the signal ratio. Potencies of inconclusive entries are doubtful fits and often do not repeat.
# Test: qHTS Assay to Find Inhibitors of Chronic Active B-Cell Receptor Signaling;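 as to activity change, negative = inhibition: plate controls were basal doxycycline-induced cells for no effect and cells given 10 µM MG132 for full effect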
# Settings: ABC-DLBCL IkBa-CBG/CBR reporter, luminescence ratio (green luciferase fused to IkBa over red control in TMD8 lymphoma cells), 4 h; activity change, negative = inhibition: at 46.1 µM (top of the series)
# Summary of the method: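 Compounds up to 46 uM were incubated four hours with TMD8 cells whose green CBG68 luciferase is fused to IkappaBalpha; red CBR luminescence normalised the signal, and concentration-effect curves were fitted to fusion, red and ratio data.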
# Potency is read from the fitted curve at half-maximal effect.
Compound,"activity change, negative = inhibition",Potency
Cc1ccc(S(=O)(=O)N2CCCN(S(=O)(=O)c3ccc(C)cc3)CC2)cc1,inactive: -5.86%,
COC(=O)c1cccc(NC(=O)NC2CCCN2S(=O)(=O)c2ccc(Cl)cc2)c1 (stereo not drawn),inconclusive: 11.9%,
COc1ccc(OC)c(/C(O)=C/C(=O)C(=O)Nc2ccccc2OC)c1,inactive: -1.56%,
CN(c1ccccc1)c1ccc(/C=C(\C#N)c2nnc3n2CCCCC3)cc1[N+](=O)[O-],inactive: 15.6%,
O=C(c1cc(Sc2cccc(Cl)c2)nc2ccccc12)N1CCN(c2ccccn2)CC1,inactive: -0.436%,
Cc1ccc(CSc2nccc(-c3c(C)nc4ccccn34)n2)cc1,inactive: -7.46%,
O=C(Nc1cccc(Cl)c1)c1ccc2ncsc2c1,inconclusive: -18.5%,
O=C(O)c1ccc2c(c1Sc1ccccc1)C(=O)c1ccccc1C2=O,inconclusive: 13.7%,
CCCCCCC(=O)N(O)C1CC(=O)N(c2ccccc2)C1=O (stereo not drawn),inconclusive: 8.73%,
CCCC(=O)Nc1cccc(NC(=O)c2ccc(C)c([N+](=O)[O-])c2)c1,inconclusive: -8.93%,
O=C(O)CC1(O)C(=O)N(Cc2ccccc2)c2ccccc21 (stereo not drawn),,"inconclusive: 0.447 µM [falling, full curve, poor fit]"
CCOc1ccccc1NC(=O)Nc1ccc(CC#N)cc1,,"inconclusive: 17.8 µM [falling, partial curve, poor fit]"
CCN(CC)CCNC(=S)Nc1ccc2nc(N3CCOCC3)cc(C)c2c1,inactive: -3.69%,
COc1ccc(C)cc1S(=O)(=O)Nc1cccc(-c2cn3cccnc3n2)c1,inactive: 2.97%,
CC1=C(C(=O)Nc2cccc(F)c2)C2(CCCCC2)OC1=O,,"inconclusive: 31.6 µM [falling, single point]"
CC(C)C(=O)Nc1nnc(NC(=S)Nc2ccccc2)s1,,"inconclusive: 31.6 µM [rising, single point]"
Nc1nc(CN2CCCCCC2)nc(Nc2ccccc2)n1,inconclusive: -6.42%,
O=C(N/N=C/c1ccc(-c2ccccc2[N+](=O)[O-])o1)[C@H]1C[C@@H]1c1ccccc1,,"inconclusive: 20.6 µM [falling, partial curve]"
CC1CCCN(c2ccc([N+](=O)[O-])cc2C(=O)c2ccccc2)C1 (stereo not drawn),,"inconclusive: 13 µM [falling, partial curve]"
O=C1CN(S(=O)(=O)c2cccc(Cl)c2Cl)CCN1,inactive: -3.4%,
CCOC(=O)C1CCN(C(c2ccc(C)cc2)c2sc3nc(-c4ccco4)nn3c2O)CC1 (stereo not drawn),inactive: 0.08%,

Compound,"activity change, negative = inhibition",Potency
C=CCn1c2ccccc2c2nnc(SCCCn3c(=O)[nH]c4ccccc43)nc21,inconclusive: 15%,
COc1cccc(CNC(=O)c2c[nH]n3c(=O)c(Cl)c(C)nc23)c1,inconclusive: -0.0423%,
Nc1ncnc2c1cnn2-c1ccccc1,,"inconclusive: 14.1 µM [falling, single point]"
COCCNC(=O)C(=O)N/N=C/c1ccc(C(=O)OC)cc1,inactive: 5.55%,
Cc1ccc(Cl)cc1N1CCN(C(=O)c2ccc3nc[nH]c3c2)CC1,inconclusive: -9.17%,
CCCCN(Cc1cc2ccccc2[nH]c1=O)S(=O)(=O)c1ccc(C)cc1,inconclusive: -29.4%,
Nc1c(-c2ccccc2)cnn1-c1ccc(C(=O)O)cc1,inconclusive: 378%,
COc1ccc([N+](=O)[O-])cc1NC(=O)C(C)Sc1nc(-c2ccccc2)cs1 (stereo not drawn),inconclusive: 6.82%,
CCOC(=O)CNC(=S)N(CCCN1CCCC1)Cc1cccs1,inactive: 0.581%,
Cc1ccc(/C=C2\SC(=S)N(/N=C/c3cc([N+](=O)[O-])ccc3O)C2=O)o1,inconclusive: -28.2%,
COC(=O)c1sc(=S)n(-c2ccccc2OC)c1N,inactive: 1.28%,
COc1ccc(CCN2CC(C(=O)N(C)Cc3c(C)n[nH]c3C)CCC2=O)cc1 (stereo not drawn),inactive: 0.0756%,
CCOC(=O)C1CCCN(CCC(=O)Nc2ccc(Br)c(C)c2)C1 (stereo not drawn),inactive: -1.71%,
O=C(Nc1cccc2c1CCCC2)C1CCN(c2nnnn2-c2ccccc2)CC1,inconclusive: -0.96%,
CCCCNc1c(-c2cccc(-c3cc(C(C)=O)cs3)c2)nc2cc(C)ccn12,inconclusive: -19.1%,
Cc1[nH]c(=O)[nH]c(=O)c1/C=N/NC(=O)CCCCCNC(=O)OC(C)(C)C,inconclusive: 8.43%,
O=C1CS/C(=N/N=C2C3CC4CC(C3)CC2C4)N1,inactive: 15.9%,
CC(C)CCNC(=S)Nc1ccc(Br)cc1,inconclusive: 2.51%,
COc1ccccc1-c1oc2ccccc2c1C#CCCCCO,inactive: -1.28%,
Cc1nc(-c2ccc(NC(=O)C(C)(C)C)cc2)c(-c2ccccc2)o1,inconclusive: 0.998%,
Cc1ccccc1Nc1nc(N)nc(COC(=O)CCS(=O)(=O)c2ccc(Cl)cc2)n1,,"inconclusive: 20.6 µM [falling, partial curve]"

Compound,"activity change, negative = inhibition",Potency
O=C(/C=C/c1ccccc1)NC(NC(=S)Nc1cc(Cl)ccc1Cl)C(Cl)(Cl)Cl (stereo not drawn),,"inconclusive: 5.01 µM [rising, partial curve]"
Cc1c(OCC(=O)NCCN2CCOCC2)ccc2c1oc(=O)c1ccccc12,inconclusive: -19.6%,
CCCN(CCC)C(=O)CSc1nc2n[nH]c(C)c2c(=N)n1-c1ccc(OCC)cc1,inconclusive: 4.25%,
O=c1oc(-c2cccc(Cl)c2)nc2c1cnn2-c1ccccc1,inactive: -5.07%,
COc1ccc(-c2cc3nc4ccccc4n3c(N)c2C#N)cc1,inconclusive: 18.3%,
COc1cc(OC)c(CN2CCCCCCC2)cc1Br,,"inconclusive: 4.61 µM [rising, full curve, poor fit]"
O=S(=O)(Cc1ccccc1)N1CCCC(c2nc(-c3ccc(F)cc3)no2)C1 (stereo not drawn),inactive: -4.17%,
CCN1C[C@@H]2[C@@H]3C(=O)N(Cc4ccccc4)C(=O)[C@@H]3[C@](Cc3ccccc3)(C(=O)OC)N2C1=NC1CCCCC1,inconclusive: -3.1%,
Cc1nc(SCC(=O)N(CC(C)C)C2CCS(=O)(=O)C2)c2c(C)c(C)sc2n1 (stereo not drawn),inactive: -0.889%,
CCOCCOC(=O)c1[nH]c2c(c1C)C(=O)CC(c1cccs1)C2 (stereo not drawn),,"inconclusive: 0.891 µM [falling, full curve, poor fit]"
Oc1c(C(c2ccccc2Cl)N2CCCC2)ccc2cccnc12 (stereo not drawn),,"inconclusive: 31.6 µM [falling, partial curve, poor fit]"
Cc1ccc(-c2cc(C(=O)N/N=C/c3c[nH]c4ccccc34)[nH]n2)cc1,,"inconclusive: 29.1 µM [falling, single point]"
O=C(NC1CCCCC1)Oc1cc2oc(=O)sc2cc1Br,inconclusive: -3.23%,
O=C(Nc1ccc(NC(=O)C2CC2)cn1)c1ccccc1,,"inconclusive: 35.5 µM [rising, single point]"
Cc1ccc(-c2nnc(-c3cccc(Br)c3)o2)cc1,inconclusive: 16.2%,
COc1ccc(N2CCN(C(=O)CCNS(=O)(=O)c3cc(Br)cnc3N)CC2)cc1,,"inconclusive: 20 µM [falling, partial curve, poor fit]"
Cc1csc(NC(=O)CSc2nc3nc(C)cc(C)n3n2)n1,inactive: 0.16%,
Cc1nc2ccccc2n1CCc1nc2c3ccccc3nc(=S)n2[nH]1,inactive: -28.8%,
COc1ccccc1OCc1nnc(SCC(=O)Nc2nnc(C3CC3)s2)n1C,inconclusive: -0.359%,
COC(=O)c1sccc1NC(=O)c1ccc(Cl)s1,inconclusive: 5.35%,
Cc1cc(C)c(NC(=O)CNC(=O)COC(=O)/C=C/c2cccs2)c(C)c1,inconclusive: -14.6%,

Compound,"activity change, negative = inhibition",Potency
Oc1c(Br)cc(/C=N/Nc2nncc3ccccc23)cc1Br,inactive: 6.13%,
CCS(=O)(=O)N1CCC(C(=O)NCc2ccc(OC)cc2OC)CC1,inconclusive: 7.88%,
O=C(Nc1ccc(F)cc1F)C1(c2cccs2)CCOCC1,inconclusive: -20.3%,
Cc1cc2cc3c(cc2nc1SCC(=O)N1CCOCC1)OCO3,inconclusive: -2.63%,
O=C(NNC(=O)c1cccc(S(=O)(=O)N2CCN(c3ccccc3)CC2)c1)c1ccc(Cl)cc1,inactive: -9.74%,
CC(C)N1CCC(N2CCN(CCCn3cccn3)CC2CCO)CC1 (stereo not drawn),inactive: 6.38%,
CCCOc1ccc(OC(=O)c2ccc(Br)o2)cc1,inconclusive: 5.5%,
O=C(CCl)N1c2ccccc2SCC1c1ccccc1 (stereo not drawn),,"inconclusive: 35.5 µM [falling, single point]"
C[C@H]1CN([C@@H](C)CO)C(=O)c2cccc(NS(=O)(=O)c3ccc(F)cc3)c2O[C@H]1CN(C)S(=O)(=O)c1cn(C)cn1,inactive: -0.247%,
O=C1[C@@H]2Cc3c([nH]c4ccccc34)C(c3cccc([N+](=O)[O-])c3)N2C(=O)CN1CCCO (stereo partly drawn),inactive: -10.6%,
CCCN(CCC)CCCNC(=O)c1ccc2c(Cl)c3c(nc2c1)CCC3,inconclusive: -6.13%,
CCOC(=O)c1c(/N=C/C2C(=O)CCCC2=O)sc2c1CCCC2,inconclusive: -12.1%,
Cc1ccc(-n2c(Cc3ccccc3)n[nH]c2=S)c(C)c1,,"inconclusive: 12.6 µM [falling, partial curve, poor fit]"
CCOC(=O)c1cnc2ccc(Cl)cc2c1N1CCN(C)CC1,inconclusive: -19.3%,
C/C(CS(=O)(=O)c1ccc(Cl)c(Cl)c1)=N/NC(N)=S,,"inconclusive: 35.5 µM [falling, single point]"
CCOC(=O)CNC(=O)CSc1nc(Cc2ccccc2)nc2ccccc12,inconclusive: -14.1%,
CCOC(=O)C1=C(c2ccccc2)Nc2nc(C)nn2C1c1cccc(OC)c1OC (stereo not drawn),inconclusive: 0.277%,
Cn1cnc2c1c(=O)n(Cc1cccc(F)c1)c(=O)n2C,inactive: 1.73%,
Cc1ccccc1NC(=O)N1CCN(C(=O)c2ccco2)CC1,inconclusive: -17.5%,
O=C(Nc1ccc(N2CCOCC2)nc1)c1ccc(C(F)(F)F)cc1,inconclusive: 1.13%,

# Single records, from the list above:
# `O=c1oc(-c2cccc(Cl)c2)nc2c1cnn2-c1ccccc1` as listed: activity change, negative = inhibition: inactive: -5.07%
# `COc1ccc(CCN2CC(C(=O)N(C)Cc3c(C)n[nH]c3C)CCC2=O)cc1` (stereo not drawn) as listed: activity change, negative = inhibition: inactive: 0.0756%
# `O=C(O)CC1(O)C(=O)N(Cc2ccccc2)c2ccccc21` (stereo not drawn) as listed: Potency: inconclusive: 0.447 µM [falling, full curve, poor fit]
# `Cc1c(OCC(=O)NCCN2CCOCC2)ccc2c1oc(=O)c1ccccc12` as listed: activity change, negative = inhibition: inconclusive: -19.6%
